From PubChem BioAssay AID1487 (National Center for Advancing Translational Sciences (NCATS), 2009)
Where “and” joins values, the source holds several entries; their conditions need not be identical. Identical values can stand only once. The list shows a part of the results. Further columns of the screen follow, without active or inactive calls. The list favours compounds with an active or inconclusive main result. Words in brackets tell the shape of the fitted curve; partial curves, single points and poor fits give uncertain potencies.

Test: qHTS Assay for Modulators of Lamin A Splicing
Conditions: HeLa LMNA splicing GFP/RFP minigene ratio, 48 h
Procedure, shortened: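 S3 HeLa cells stably expressing lamin A-EGFP splicing minigene plus DsRed2, 600 cells/well, 48 h compound exposure at 37C. Laser-scanning cytometry; analysed as GFP (500-530 nm)/RFP (575-640 nm) total intensity ratio; 0.5% DMSO vehicle.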

[1] = measured here: RFP viability control channel
[2] = measured here: GFP splicing reporter channel

| SMILES | AC50 [1] | AC50 [2] |
| --- | --- | --- |
| CCn1c(SCC(=O)NCc2ccc3c(c2)OCO3)nnc1-c1c[nH]c2ccccc12 | 17.8 µM [rising, single point] | – |
| Cc1cn2c(=O)cc(COC(=O)c3ccc(NC(=O)C(C)Oc4ccccc4)cc3)nc2s1 (stereo not given) | – | 11.2 µM [falling, partial curve, poor fit] |
| O=C(Nc1ccc2ccccc2c1)C(c1ccccc1)C1CCCC1 (stereo not given) | 15.8 µM [rising, partial curve] | – |
| Cc1ccc(Nc2nc3ccccc3c(=O)s2)cc1C | 35.5 µM [rising, single point] | 31.6 µM [rising, single point] |
| Cc1cc(=O)c2ccc(Cl)cc2[nH]1 | 15.8 µM [rising, partial curve, poor fit] | – |
| COc1ccc(CCNC(=O)c2cc(=O)[nH]c3ccc(S(=O)(=O)N4CCCCC4C)cc23)cc1OC (stereo not given) | – | 6.31 µM [falling, partial curve, poor fit] |
| COc1ccc(-c2ccc(-c3noc(-c4cccc(OC)c4)n3)c(OC)n2)cc1 | 7.08 µM [rising, partial curve, poor fit] | 0.0224 µM [rising, full curve, poor fit] |
| O=C(CCc1nc(-c2ccccc2)no1)Nc1cc(C(F)(F)F)ccc1Cl | – | 35.5 µM [rising, single point] |
| O=C(Nc1cc(Cl)cc(Cl)c1)c1cc(S(=O)(=O)N2CCC3(CC2)OCCO3)ccc1F | 0.141 µM [falling, full curve, poor fit] | – |
| O=C(Nc1ccccc1N1CCCCC1)c1cccs1 | 22.4 µM [rising, single point] | – |
| CCSc1ccc2nnc(-c3cccs3)n2n1 | – | 0.01 µM [rising, full curve, poor fit] |
| CC/C(=N\NC(=O)c1ccoc1C)c1ccc(C)o1 | – | 0.794 µM [rising, partial curve] |
| COC1=C(N)C(=O)c2nc(-c3nc(C(=O)O)c(C)c(-c4ccc(OC)c(OC)c4O)c3N)ccc2C1=O | 0.126 µM [rising, full curve, poor fit] | 0.126 µM [falling, full curve, poor fit] |
| CCOc1ccc(Br)cc1S(=O)(=O)Nc1cccc(-c2ccc(OC)nn2)c1 | 35.5 µM [falling, single point] | 22.4 µM [falling, partial curve, poor fit] |
| Cc1ccnc(NC(c2ccsc2)c2ccc3ccc(C)nc3c2O)c1 (stereo not given) | 28.2 µM [falling, single point] | – |
| CCOc1ccc(S(=O)(=O)n2ccc(C)n2)c2ccccc12 | 35.5 µM [rising, single point] | – |
| COc1cc2c(cc1OC)C(c1cc3cc4c(cc3[nH]c1=O)OCO4)N(C(=O)C1CC1)CC2 (stereo not given) | 12.6 µM [rising, partial curve, poor fit] | – |
| CCOC(=O)Nc1ccc2c(c1)N(C(=O)N(CC)CC)c1ccccc1CC2 | 35.5 µM [rising, single point] | – |
| O=C(CSc1ccc([N+](=O)[O-])cn1)Nc1ccc2c(c1)OCCO2 | – | 4.47 µM [rising, partial curve] |

| SMILES | AC50 [1] | AC50 [2] |
| --- | --- | --- |
| COc1ccc(OC)c2c1C(=O)c1ccccc1C2=O | – | 0.126 µM [rising, full curve, poor fit] |
| CC12CC(c3ccccc3O1)N(C(=O)c1ccco1)C(=S)N2c1ccc(F)cc1 (stereo not given) | 11.2 µM [falling, partial curve] | 28.2 µM [falling, single point] |
| COC(=O)c1cn(NC(=O)c2cc([N+](=O)[O-])ccc2F)c(=O)c2ccccc12 | 11.2 µM [falling, partial curve, poor fit] | 0.562 µM [falling, full curve] |
| Cc1ccc(C(=O)CSc2nnc(-c3ccco3)n2Cc2ccccc2)cc1 | 11.2 µM [rising, partial curve] | 11.2 µM [rising, partial curve] |
| CC(=O)Nc1ccc(Sc2ncccc2C(=O)Nc2ccc(F)cc2)cn1 | – | 15.8 µM [rising, partial curve] |
| O=C(OCCN1CCOCC1)c1cccs1 | – | 2.24 µM [rising, full curve] |
| Cc1ccccc1NC(=O)/C(C#N)=C\c1ccsc1 | 8.91 µM [rising, partial curve] | – |
| Cc1cc(/C=N/n2cnnc2)c(C)n1-c1ccc(OCc2ccccc2F)cc1 | 7.94 µM [falling, partial curve] | – |
| CC1CCCN(CCCNC(=O)c2cc3c(Cl)nc4ccccc4c3s2)C1 (stereo not given) | – | 35.5 µM [falling, single point] |
| C/C(Cl)=C/Cn1c(N2CCCC2)nc2c1c(=O)n(C)c(=O)n2C | 10 µM [rising, partial curve, poor fit] | – |
| CCc1ccccc1N(C)C(=O)c1sc2nc3n(c(=O)c2c1C)CCCCC3 | 2.82 µM [rising, partial curve, poor fit] | 5.01 µM [rising, partial curve] |
| CCCCS(=O)(=O)Nc1ccc(Cc2ccncc2)cc1 | 15.8 µM [rising, single point] | 20 µM [rising, partial curve] |
| FC(F)(F)c1cccc(N2CCN(C(=S)NC3CCCCC3)CC2)c1 | 35.5 µM [rising, single point] | 35.5 µM [rising, single point] |
| Cc1cccc(NC(=O)CNC(=O)COc2ccc(-c3ccc(C#N)cc3)cc2)c1C | 12.6 µM [rising, partial curve] | 11.2 µM [rising, single point] |
| COCCNC(=O)c1cc(-c2cccs2)on1 | 35.5 µM [falling, single point] | 35.5 µM [falling, single point] |
| O=S(=O)(NCc1ccccc1)NCc1ccccc1F | 6.31 µM [falling, partial curve] | – |
| COCC(C)NC(=O)CSc1nc(-c2ccccc2)c(-c2ccccc2)o1 (stereo not given) | 35.5 µM [rising, single point] | – |
| Oc1c(C(c2cccs2)N2CCN(c3ccccc3)CC2)ccc2cccnc12 (stereo not given) | 6.31 µM [falling, single point] | – |
| CC(C(=O)NCCC1=CCCCC1)c1ccc([N+](=O)[O-])cc1 (stereo not given) | – | 0.0316 µM [falling, full curve, poor fit] |

| SMILES | AC50 [1] | AC50 [2] |
| --- | --- | --- |
| CCCCOc1ccc(CSCCN=C(N)N)cc1 | 0.00282 µM [falling, full curve, poor fit] | 35.5 µM [falling, partial curve, poor fit] |
| CCOC(=O)c1ccccc1NC(=O)CN(c1cccc(OC)c1)S(C)(=O)=O | 11.2 µM [rising, partial curve] | 8.91 µM [rising, partial curve] |
| COc1ccc(Nc2nc(-c3ccccc3)c3ccccc3n2)cc1 | 20 µM [rising, single point] | – |
| O=C(/C=C/c1ccccc1Cl)NCCc1ccc(F)cc1 | – | 0.251 µM [rising, full curve, poor fit] |
| CC1CCN(c2nnc(-c3cccs3)c3ccccc23)CC1 | 4.47 µM [rising, partial curve] | – |
| Cc1cc(-c2ccc(/C=N/n3cnnc3)o2)ccc1Cl | – | 39.8 µM [falling, partial curve, poor fit] |
| CC(=O)Oc1ccc2c(c1)Oc1cc(OC(C)=O)ccc1C21OC(=O)c2ccccc21 | 0.112 µM [falling, full curve] | 0.112 µM [falling, full curve] |
| COc1ccc(CNc2ccnc(-c3ccoc3)n2)c(OC)c1 | – | 12.6 µM [falling, partial curve] |
| Cc1cccc(-c2noc(CN(C)S(=O)(=O)c3cc(Cl)ccc3Cl)n2)c1 | 35.5 µM [rising, single point] | – |
| COc1cc(OC)cc(C(=O)Oc2ccc(/C=N/Nc3nc4ccccc4s3)cc2OC)c1 | 17.8 µM [rising, partial curve, poor fit] | 20 µM [rising, partial curve, poor fit] |
| CN(CCCC(=O)Nc1nccs1)S(=O)(=O)c1ccc(Cl)cc1 | 17.8 µM [rising, partial curve, poor fit] | – |
| CCCCNc1c(C(=O)OCC)c(C)nc2c1cnn2CC | 316 nM [falling, single point] and 25.1 µM [falling, single point] | 355 nM [falling, full curve, poor fit] and 126 nM [falling, full curve, poor fit] |
| CCn1c2ccccc2c2cc([N+](=O)[O-])ccc21 | 5.01 µM [rising, partial curve] | – |
| O=c1nc2sc3ccccc3n2c(=O)n1-c1ccc(Cl)cc1 | 35.5 µM [rising, single point] | – |
| CCOc1ccc(CNC(=O)c2ccc3c(c2)nc2n3CCCCC2)cc1 | – | 0.0224 µM [rising, partial curve, poor fit] |
| CC(C)(C)NC(=O)c1nc2ccccc2s1 | 2.82 µM [falling, partial curve, poor fit] | – |
| Cc1nc2ccccc2nc1CSc1nncs1 | – | 20 µM [rising, single point] |
| CN(c1ccccc1)c1ccc(/C=C/[N+](=O)[O-])cc1 | 4.47 µM [falling, single point] | 4.47 µM [falling, partial curve, poor fit] |
| COc1ccc(N2CCN(C(=O)CSc3nnc4n3C(C)(C)Cc3ccccc3-4)CC2)cc1 | 15.8 µM [rising, single point] | – |
